Laboratory results taken from patent US20240279520A1, “FLUORINE SUBSTITUTED ETHERS AND COMPOSITIONS, METHODS AND USES INCLUDING SAME” (Honeywell International Inc., priority 2022, published 2024).

Experiment: not given
Conditions: primary refrigerant, Table 9; cited from earlier work

Structure (SMILES)	GWP Primary
CCC [Propane, propane]	3
F/C=C/C(F)(F)F (single isomer, unassigned) [R1234ze(E), trans isomer of 1,3,3,3-tetrafluoropropene]	<1
C=C(F)C(F)(F)F [Compound R1234yf, 2,3,3,3-tetrafluoropropene]	<1

Experiment: ODP
Conditions: Table 2

Structure (SMILES)	ODP
FC(F)OCC(F)(F)C(F)(F)F [Compound 2, 3-(difluoromethoxy)-1,1,1,2,2-pentafluoropropane]	0
FC(F)OC(C(F)(F)F)C(F)(F)F [Compound 3, 2-(difluoromethoxy)-1,1,1,3,3,3-hexafluoropropane]	0
FC(F)OCC(F)(F)C(F)F [Compound 1, 3-(difluoromethoxy)-1,1,2,2-tetrafluoropropane]	0
FC(F)OCC(F)(F)C(F)(F)C(F)(F)F [Compound 4, 4-(difluoromethoxy)-1,1,1,2,2,3,3-heptafluorobutane]	0
